The supplement of paper PMC11409438
Counter-ions that a name gives are not always drawn. The list shows a part of the results. Single values are uncertain, as repeats are few or missing.

What was measured:
[1] = test system: Caenorhabditis elegans ST65 (ncIs13[ajm-1::GFP]); assay: 'Larvae/adult' ratio (MetaXpress pharynx counts; minimum value 1, so it appears to include adults; growth inhibition read-out); details: 10 µM; exposure time: 4-5 days from L1 at 20°C
[2] = test system: Caenorhabditis elegans ST65 (ncIs13[ajm-1::GFP]); assay: vulvae per adult worm (MAPK/ERK-dependent vulval induction, MetaXpress) (vulvae/adult); higher = more vulval induction (less MAPK/ERK inhibition); details: 10 µM; exposure time: 4-5 days from L1 at 20°C

SMILES | 'Larvae/adult' ratio [1] | vulvae per adult worm [2]
C[C@H](Nc1ncnc2nc[nH]c12)c1cc2cccc(Cl)c2c(=O)n1-c1ccccc1 [Duvelisib (IPI-145, INK1197)] | 2.41 | 0.864
CS(=O)(=O)c1ccc(C(=O)Nc2ccc(Cl)c(-c3ccccn3)c2)c(Cl)c1 [Vismodegib (GDC-0449)] | 4.27 | 0.455
C[C@@H](Nc1cc(F)cc(F)c1)c1cc(C(=O)N(C)C)cc2c(=O)cc(N3CCOCC3)oc12 | 2.04 | 0.889
CC(C)C[C@H](NC(=O)[C@@H](Cc1cccc2ccccc12)NC(=O)[C@H](Cc1ccc(O)cc1)NC(=O)[C@H](CO)NC(=O)[C@H](Cc1c[nH]c2ccccc12)NC(=O)[C@H](Cc1cnc[nH]1)NC(=O)[C@@H]1CCC(=O)N1)C(=O)N[C@@H](CCCNC(=N)N)C(=O)N1CCC[C@H]1C(=O)NCC(N)=O [Nafarelin Acetate] | 2.3 | 0.889
COC(=O)C[C@](O)(CCCC(C)(C)O)C(=O)O[C@@H]1C(OC)=C[C@]23CCCN2CCc2cc4c(cc2[C@H]13)OCO4 [Homoharringtonine] | 2.44 | 1.08
O=C(NCc1ccncc1)C12CC3CC(C1)CC(c1ccc(Cl)cc1)(C3)C2 | 5.89 | 0
CC(C)Oc1ccc(C(=O)N[C@H](CNC(=O)CN(C)C)Cc2ccc(-c3cn4cccc([C@H](C)O)c4n3)cc2)cc1Cl | 3 | 1.06
CCN(CC)CCOc1ccc(C(=C(Cl)c2ccccc2)c2ccccc2)cc1 [Clomifene citrate] | 3.24 | 0.429
Cc1cn(-c2cc(NC(=O)c3ccc(C)c(Nc4nccc(-c5cccnc5)n4)c3)cc(C(F)(F)F)c2)cn1 [Nilotinib (AMN-107)] | 1.8 | 0.829
C[C@@]1(C(=O)Nc2ccc(F)nc2)CCCN1c1nc(Nc2cc(C3CC3)n[nH]2)c2cccn2n1 | 1.36 | 1
O=C(/C=C\n1cnc(-c2cc(C(F)(F)F)cc(C(F)(F)F)c2)n1)NNc1ccccn1 [Verdinexor (KPT-335)] | 6.18 | 0.545
NCCNc1ccc(NCCN)c2c1C(=O)c1ccncc1C2=O [Pixantrone Maleate] | 1.96 | 1
CO[C@@H](C(=O)N1Cc2[nH]nc(NC(=O)c3ccc(N4CCN(C)CC4)cc3)c2C1)c1ccccc1 | 1.9 | 1.4
CCN1C(=O)CNc2ncc(-c3ccc(-c4nc[nH]n4)nc3C)nc21 | 2.12 | 0.909
Cc1cnc(NC(=O)Nc2cc(Br)c(C)cc2OC[C@@H]2CNCCO2)cn1 | 2.36 | 0.972
C[C@H](Nc1ncnc2[nH]cnc12)c1cc2ccc(F)cc2nc1-c1ccccn1 | 3.81 | 1.75
Cc1c(F)cc(C(=O)NC2CC2)cc1-c1ccc(C(=O)NCC(C)(C)C)cn1 | 1.67 | 0.455
CC(C)(C#N)c1cc(Cn2cncn2)cc(C(C)(C)C#N)c1 [Anastrozole] | 1.56 | 0.969
CCn1c(=O)c(-c2ccc(Cl)cc2Cl)cc2cnc(Nc3ccc(N4CCNCC4)c(F)c3)nc21 | 1.66 | 0.895
CONC(=O)c1ccccc1Nc1cc(Nc2cc(C)nn2C(C)C)ncc1Cl | 1.76 | 0.882
CCS(=O)(=O)c1cccc(-c2cc(C(=O)NC3CCN(C)CC3)c(C)c3[nH]c4ncc(C)cc4c23)c1 | 1.79 | 1.06
COc1cc2c(NC3CCN(C(C)C)CC3)nc(C3CCCCC3)nc2cc1OCCCN1CCCC1 | 3 | 0.759

Entries of single compounds, looked up by structure. Order of values: 'Larvae/adult' ratio [1]	vulvae per adult worm [2]
CCS(=O)(=O)c1cccc(-c2cc(C(=O)NC3CCN(C)CC3)c(C)c3[nH]c4ncc(C)cc4c23)c1 reads 1.79	1.06
CCN1C(=O)CNc2ncc(-c3ccc(-c4nc[nH]n4)nc3C)nc21 reads 2.12	0.909

Remaining list, next part.

SMILES | 'Larvae/adult' ratio [1] | vulvae per adult worm [2]
CN(C)CCOc1ccc(/C(=C(/CCCl)c2ccccc2)c2ccccc2)cc1 [Toremifene Citrate] | 2.3 | 1.3
COc1cc2nccc(Oc3ccc(NC(=O)C4(C(=O)Nc5ccc(F)cc5)CC4)cc3)c2cc1OC | 2.22 | 0.111
Cc1nc(NC(=O)N2CCC[C@H]2C(N)=O)sc1-c1ccnc(C(C)(C)C(F)(F)F)c1 [Alpelisib (BYL719)] | 1.8 | 1
CC[C@]1(O)C[C@H]2CN(CCc3c([nH]c4ccccc34)[C@@](C(=O)OC)(c3cc4c(cc3OC)N(C=O)[C@H]3[C@@](O)(C(=O)OC)[C@H](OC(C)=O)[C@]5(CC)C=CCN6CC[C@]43[C@@H]65)C2)C1 [Vincristine sulfate] | 2.67 | 1.05
Cc1ccc(NC(=O)c2ccc(CN3CCN(C)CC3)cc2)cc1Nc1nccc(-c2cccnc2)n1 [Imatinib (STI571)] | 1.65 | 0.725
COc1cc(N2CCC(N3CCN(C)CC3)CC2)ccc1Nc1ncnc(Nc2ccccc2S(=O)(=O)C(C)C)n1 | 1.9 | 1.05
Nc1nc(N)c2nc(-c3cccc(O)c3)c(-c3cccc(O)c3)nc2n1 | 1.97 | 0.9
CC(C)[C@H](C(=O)Nc1ccc(C(=O)NO)cc1)c1ccccc1 | 2.57 | 0.867
Nc1ccn([C@@H]2O[C@H](CO)[C@@H](O)[C@@H]2O)c(=O)n1 [Cytarabine] | 1.71 | 0.868
O=c1[nH]cc(F)c(=O)[nH]1 [Fluorouracil (5-Fluoracil, 5-FU)] | 1.73 | 1.23
Cc1ccc(Nc2nccc(N(C)c3ccc4c(C)n(C)nc4c3)n2)cc1S(N)(=O)=O [Pazopanib] | 3.67 | 0.667
Cc1nc(=O)c2cc(CN(C)c3ccc(C(=O)N[C@@H](CCC(=O)O)C(=O)O)s3)ccc2[nH]1 [Raltitrexed] | 1.98 | 1.09
CCc1cnn2c(NCc3ccc[n+]([O-])c3)cc(N3CCCC[C@H]3CCO)nc12 | 1.54 | 0.0769
O=C(Nc1c[nH]nc1-c1nc2ccc(CN3CCOCC3)cc2[nH]1)NC1CC1 | 1.5 | 1
CN(c1ncccc1CNc1nc(Nc2ccc3c(c2)CC(=O)N3)ncc1C(F)(F)F)S(C)(=O)=O | 2.61 | 0.278
C[C@@H]1COC(Nc2ccc3ncnc(Nc4ccc(OCc5nccs5)c(Cl)c4)c3c2)=N1 [Varlitinib] | 1.9 | 0.452
CCN(CC)CCNC(=O)c1c(C)[nH]c(/C=C2\C(=O)Nc3ccc(-c4csc(-c5ccccc5)n4)cc32)c1C [Amcasertib (BBI503)] | 4.58 | 1
C[C@@H]1COCCN1c1cc(C2([S@](C)(=N)=O)CC2)nc(-c2cc[nH]c3nccc2-3)n1 | 1.85 | 0.735
Nc1cc(C(F)(F)F)c(-c2cc(N3CCOCC3)nc(N3CCOCC3)n2)cn1 [Buparlisib (BKM120, NVP-BKM120)] | 1.87 | 1.1
O=C(Nc1cc(Cl)cc2c1[nH]c1cnccc12)c1cccnc1 | 1.94 | 0.613
NC(=O)c1cccc2cn(-c3ccc([C@@H]4CCCNC4)cc3)nc12 [Niraparib (MK-4827)] | 1.57 | 0.925
Nc1nc(Cl)nc2c1ncn2[C@@H]1O[C@H](CO)[C@@H](O)[C@@H]1F [Clofarabine] | 3.5 | 1.38

SMILES | 'Larvae/adult' ratio [1] | vulvae per adult worm [2]
C[C@]1(c2nc3c(C(N)=O)cccc3[nH]2)CCCN1 [Veliparib (ABT-888)] | 3.23 | 1.14
Cc1c(C(=O)Nc2ccc(N3C[C@@H](C)O[C@@H](C)C3)nc2)cccc1-c1ccc(OC(F)(F)F)cc1 [Sonidegib (Erismodegib, NVP-LDE225)] | 2.76 | 0.824
CC(=O)c1c(C)c2cnc(Nc3ccc(N4CCNCC4)cn3)nc2n(C2CCCC2)c1=O | 2.43 | 0.973
N[C@@H]1CCCN(c2c(/C=C3\SC(=O)NC3=O)cccc2-c2ccccc2)C1 | 2.17 | 1
CO[C@@]12[C@H](COC(N)=O)C3=C(C(=O)C(C)=C(N)C3=O)N1C[C@@H]1N[C@@H]12 [Mitomycin C] | 1.78 | 0.216
O=C(O)c1ccc(O)c2ncccc12 | 1.75 | 0.528
Cn1nnc2c(C(N)=O)ncn2c1=O [Temozolomide] | 2.42 | 1.09
CCCCNc1ncc(C(=O)NCc2ccc(-n3ccnc3)cc2)c(NC2CCC(O)CC2)n1 (stereo not given) | 1.98 | 1
Cc1cc2c(F)c(Oc3ncnn4cc(OC[C@@H](C)O)c(C)c34)ccc2[nH]1 | 2.1 | 0.9
CCCCc1nc2cc(/C=C/C(=O)NO)ccc2n1CCN(CC)CC [Pracinostat (SB939)] | 1.57 | 0.0196
CC1(C)NC(=O)N(c2ccc([N+](=O)[O-])c(C(F)(F)F)c2)C1=O [Nilutamide] | 3.82 | 1.27
Cc1nc(C(=O)NCC(=O)O)c(O)c2ccc(Oc3ccccc3)cc12 [Roxadustat (FG-4592)] | 2.22 | 0.972
COCC(=O)Nc1cc(Sc2ccccc2)ccc1N=C(NC(=O)OC)NC(=O)OC [Febantel] | 1.59 | 1.03
CC[C@@H]1C(=O)N(C)c2cnc(Nc3ccc(C(=O)NC4CCN(C)CC4)cc3OC)nc2N1C1CCCC1 | 2.55 | 1
CN(C)Cc1ccc(S(=O)(=O)n2ccc(/C=C/C(=O)NO)c2)cc1 [Resminostat] | 3.27 | 0.577
c1cn2cc(-c3ccc4cn[nH]c4c3)nc(Nc3ccc(N4CCOCC4)cc3)c2n1 [Entospletinib (GS-9973)] | 8.5 | 1
CN1CCC(CNc2ccc3ncc(-c4cccc(OC(F)(F)F)c4)n3n2)CC1 [SGI-1776 free base] | 2.88 | 1.06
Cc1cc([C@@H](C)Nc2ccccc2C(=O)O)c2nc(N3CCOCC3)cc(=O)n2c1 | 2.06 | 0.969
O=C(O)CC1CC(c2ccccc2)=NO1 (stereo not given) | 1.58 | 1.17
O=C(/C=C/c1cccc(S(=O)(=O)Nc2ccccc2)c1)NO [Belinostat (PXD101)] | 1.89 | 0.889
CO[C@H]1C[C@@H]2CC[C@@H](C)[C@@](O)(O2)C(=O)C(=O)N2CCCC[C@H]2C(=O)O[C@H]([C@H](C)C[C@@H]2CC[C@@H](O)[C@H](OC)C2)CC(=O)[C@H](C)/C=C(\C)[C@@H](O)[C@@H](OC)C(=O)[C@H](C)C[C@H](C)/C=C/C=C/C=C/1C [Rapamycin (Sirolimus)] | 2.33 | 1.14

Sorted by formula weight (low to high): some entries from above
SMILES | 'Larvae/adult' ratio [1] | vulvae per adult worm [2]
NC(=O)c1cccc2cn(-c3ccc([C@@H]4CCCNC4)cc3)nc12 [Niraparib (MK-4827)] | 1.57 | 0.925
CS(=O)(=O)c1ccc(C(=O)Nc2ccc(Cl)c(-c3ccccn3)c2)c(Cl)c1 [Vismodegib (GDC-0449)] | 4.27 | 0.455
Cc1nc(NC(=O)N2CCC[C@H]2C(N)=O)sc1-c1ccnc(C(C)(C)C(F)(F)F)c1 [Alpelisib (BYL719)] | 1.8 | 1
Cc1nc(=O)c2cc(CN(C)c3ccc(C(=O)N[C@@H](CCC(=O)O)C(=O)O)s3)ccc2[nH]1 [Raltitrexed] | 1.98 | 1.09
